From PubChem BioAssay AID504648 (National Center for Advancing Translational Sciences (NCATS), 2011)
Out of some 390,000 compounds screened, about 610 (0.16%) were called active. Inconclusive results, whose numbers are uncertain, are shown with a selection of clear calls. Calls follow the shape of the dose curve; as a rule, active = well fitted inhibition curve with a large enough effect; inconclusive = small, poorly fitted or top-dose-only effect, or effect the other way, or another doubt; inactive = no such curve, though single readings can be large or run the other way. Where the call is inconclusive, the potency comes from a doubtful curve fit.
% is scaled to controls: 0 for no effect and ±100 for the full control effect; potency is read from the fitted curve at half-maximal effect.

Experiment: Nrf2 qHTS screen for inhibitors: counterscreen for cytotoxicity
Conditions: A549 ARE-Fluc cells, CellTiter-Fluor viability, 18-24 h; activity change, negative = cytotoxicity: at 46 µM (top of the series)
Summary of the method: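 Cytotoxicity counterscreen: CellTiter-Fluor fluorescence was measured in A549 ARE_Fluc cells after 18-24 h of compound exposure in a concentration series. The subsequent BugLite luminescent read reports ARE-luciferase activity.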
With `Nc1c(C(=O)NCC2CCCO2)c2nc3ccccc3nc2n1-c1ccccc1` (stereo not given) the Potency was inconclusive: 16.4 µM [activator, partial curve, poor fit].
In the case of `C=CCN1C(=O)NC(c2ccccc2)(C(F)(F)F)S/C1=C(\C#N)c1nnc(N2CCOCC2)n1-c1ccccc1` (stereo not given), the Potency is reported as inconclusive: 18.4 µM [falling, single point].
In the case of `O=C(c1cccn2c(=O)c3cc(Cl)ccc3nc12)N1CCOCC1`, the Potency is reported as inconclusive: 1.03 µM [activator, single point].
For `CC(C)N1C(=O)c2ccccc2C1C(=O)NCCc1ccccc1` (stereo not given), the “activity change, negative = cytotoxicity” value was inactive: -3.86%.
In the case of `CC(C)C(=O)Nc1cc(C(F)(F)F)ccc1N1CCOCC1`, the Potency is reported as inconclusive: 29.1 µM [activator, single point].
With `CC1(C)OC(=O)C(=NNc2ccc(O)cc2)C(=O)O1` the Potency was inconclusive: 18.4 µM [falling, partial curve].
With `N#Cc1c(N)n(CCOC(=O)c2ccc(Cl)cc2)c2nc3ccccc3nc12` the Potency was inconclusive: 25.9 µM [activator, partial curve, poor fit].
With `Cc1ccc2nc(-c3cccc(NS(C)(=O)=O)c3)cc(-c3ccccc3)c2c1` the Potency was inconclusive: 29.1 µM [falling, single point].
For `CCN1CCN(c2ccc([N+](=O)[O-])cc2C(=O)c2ccc(Cl)cc2)CC1`, the Potency was inconclusive: 25.9 µM [falling, single point].
In the case of `O=C(CSc1nc(-c2ccc(F)cc2)[nH]c1-c1ccc(F)cc1)Nc1ccc2c(c1)OCCO2`, the Potency is reported as inconclusive: 23.1 µM [falling, single point].
With `COc1ccc(S(=O)(=O)Nc2cccc3c2O[C@H](CN(C)Cc2ccc(Cl)c(Cl)c2)[C@@H](C)CN([C@H](C)CO)C3=O)cc1` the Potency was inconclusive: 16.4 µM [falling, partial curve, poor fit].
For `CCOC(=O)c1cnc(-n2nc(C)cc2C)nc1NC1CCCC1`, the Potency was inconclusive: 29.1 µM [falling, single point].
With `O=C(CCc1nc2ccccc2c(=O)[nH]1)N1CCN(S(=O)(=O)c2ccccc2Br)CC1` the Potency was inconclusive: 13 µM [falling, partial curve, poor fit].
For `CCN(CC)c1nc(N)c2c(N)nc3c(c2c1C#N)CC(c1ccccc1)O3` (stereo not given), the “activity change, negative = cytotoxicity” value was inactive: -80%.
In the case of `Cc1cccc(Cn2nc(C(C)(C)C)cc2C(=O)Nc2ccc(F)cc2)c1`, the Potency is reported as inconclusive: 18.4 µM [falling, single point].
With `C=C1SC(Nc2c(C)cc(C)cc2C)=NC12CCCCC2` the Potency was inconclusive: 14.6 µM [falling, partial curve].
In the case of `O=C(/C=C/c1c(F)cccc1Cl)N1CCc2ccccc2C1`, the “activity change, negative = cytotoxicity” value is reported as inactive: 1.43%.
For `Nc1c(C(=O)NCCN2CCOCC2)c2nc3ccccc3nc2n1-c1ccccc1`, the Potency was inconclusive: 29.1 µM [activator, single point].
In the case of `CN1C=CC=C/C1=C1\SC(=S)N(CC(=O)O)C1=O`, the Potency is reported as inconclusive: 16.4 µM [falling, partial curve, poor fit].
In the case of `NNC(=O)c1cc(O)c(O)c(O)c1`, the Potency is reported as inconclusive: 18.4 µM [falling, single point].
For `Cc1[nH]nc2c1C(c1ccc(F)cc1)C1=C(CC(C)(C)CC1=O)N2` (stereo not given), the Potency was inconclusive: 16.4 µM [activator, partial curve, poor fit].
In the case of `COC(=O)c1cccc(NC(=O)CN2CCC(NC(=O)c3cc(OC)c(OC)c(OC)c3)CC2)c1`, the Potency is reported as inconclusive: 0.58 µM [activator, full curve, poor fit].
In the case of `COc1ccccc1N1CCN(C(=O)c2ccc3[nH]c4c(c3c2)CC(C)CC4)CC1` (stereo not given), the Potency is reported as inconclusive: 18.4 µM [falling, single point].
For `CCc1ccccc1NC(=O)Cn1c(=O)n(Cc2ccc(OC)cc2)c(=O)c2oc3ccccc3c21`, the “activity change, negative = cytotoxicity” value was inactive: 4.15%.
In the case of `COc1ccc(CCNc2c3ccccc3nc3ccccc23)cc1OC`, the Potency is reported as inconclusive: 20.6 µM [falling, single point].
With `O=C(C1CCCC1)N1CCC(CC2CC(c3cccc(Br)c3)=NO2)(C(=O)NCC2CCCCC2)CC1` (stereo not given) the Potency was inconclusive: 18.4 µM [falling, partial curve].
With `CN(Cc1ccccc1)S(=O)(=O)c1ccc(C(=O)Nc2nnc(C3CC3)o2)cc1` the “activity change, negative = cytotoxicity” value was inactive: -3.9%.
For `COCCOC(=O)c1c(-c2ccccc2)c(-c2ccccc2)nn(C)c1=O`, the “activity change, negative = cytotoxicity” value was inactive: -9.26%.
With `O=c1nc2ccccc2c2n1CC(CN1CCN(C(c3ccccc3)c3ccccc3)CC1)N2` (stereo not given) the Potency was inconclusive: 20.6 µM [falling, single point].
In the case of `CC(C)(C)NC(=O)NC(=O)COc1ccccn1`, the Potency is reported as inconclusive: 5.8 µM [activator, single point].
With `CC(C)(C)NC(=O)C(c1ccc(-c2ccccc2)cc1)N(C[C@H]1CC[C@@H]([C@@H]2CC[C@H](CO)O2)O1)C(=O)c1ccc2ccccc2c1` (stereo not given in full) the Potency was inconclusive: 23.1 µM [falling, single point].
For `CC1Cc2ccccc2N1CC(=O)Nc1ccc(S(=O)(=O)N(C)C)cc1` (stereo not given), the Potency was inconclusive: 0.58 µM [activator, full curve].
In the case of `OCCNCc1cc(Br)ccc1OCc1ccc(Cl)cc1`, the “activity change, negative = cytotoxicity” value is reported as inactive: -14.9%.
In the case of `O=C(NCC(c1cccs1)S(=O)(=O)c1ccccc1)c1ccc(C(F)(F)F)cc1` (stereo not given), the “activity change, negative = cytotoxicity” value is reported as inactive: 6.69%.
For `Nc1c(C(=O)CSc2nnnn2-c2ccccc2)c(=O)[nH]c(=O)n1C1CC1`, the “activity change, negative = cytotoxicity” value was inactive: 0.209%.
In the case of `COCCCNC(=O)CSc1nc2c(sc3ccccc32)c(=O)n1CCc1ccc(OC)c(OC)c1`, the Potency is reported as inconclusive: 3.66 µM [falling, partial curve, poor fit].
For `Oc1ccccc1/C=N/NC1=NCCCCC1`, the Potency was inconclusive: 29.1 µM [activator, single point].
For `Cc1ccc(C(=O)Nc2nc(-c3ccccn3)cs2)cc1S(=O)(=O)N1CCOCC1`, the Potency was inconclusive: 16.4 µM [falling, single point].
In the case of `CCOC(=O)CN1C(=O)S/C(=C/c2ccc(O)c([N+](=O)[O-])c2)C1=O`, the Potency is reported as inconclusive: 16.4 µM [falling, single point].
With `COc1ccc(-c2nc(NC(=O)Cn3c(=O)oc4ccccc43)sc2C)cc1` the “activity change, negative = cytotoxicity” value was inactive: -17.3%.
In the case of `O=C(c1ccccc1)N(CCO)Cc1cc2cc3c(cc2[nH]c1=O)OCCO3`, the “activity change, negative = cytotoxicity” value is reported as inactive: 5.94%.
For `CCN(CC)c1cc(C)c2cc(NC(=O)/C=C/c3cc(OC)c(OC)c(OC)c3)ccc2n1`, the Potency was inconclusive: 25.9 µM [falling, single point].
With `COc1ccc(CN(C)C(=O)CCl)cc1` the “activity change, negative = cytotoxicity” value was inactive: -4.46%.
For `N#CC(C(=O)OC1CCCCC1)c1nc2ccccc2nc1N1CCOCC1` (stereo not given), the “activity change, negative = cytotoxicity” value was inactive: 16.9%.
For `O=C(Cn1ncc2c3ccccc3n(Cc3ccccc3F)c2c1=O)NCc1ccccc1Cl`, the “activity change, negative = cytotoxicity” value was inactive: 2.93%.
In the case of `CCC(=O)c1ccc(/C=C/c2nc3ccccc3n2C)o1`, the Potency is reported as inconclusive: 20.6 µM [activator, single point].
With `C=CC[C@H](CC(=O)N(CCO)Cc1ccccc1)C(=O)NC[C@H](OC(=O)[C@@H](CC=C)Cc1ccc(F)cc1)c1ccccc1` the Potency was inconclusive: 23.1 µM [falling, single point].
With `CCOC(=O)c1cc2c(=Cc3ccc(N(C)C)cc3)c3ccccc3n2[n+]1C` the Potency was inconclusive: 14.6 µM [falling, partial curve].
For `CC(Oc1ccc2oc3ccccc3c2c1)C(=O)NC12CC3CC(CC(C3)C1)C2` (stereo not given), the Potency was inconclusive: 20.6 µM [activator, partial curve, poor fit].
For `CN(Cc1ccccc1)C(=O)c1ccc(CSc2nc3cccnc3n2Cc2ccccc2F)cc1`, the Potency was inconclusive: 29.1 µM [falling, single point].
For `Cn1cccc1/C=C1/SC(=S)N(CC(=O)O)C1=O`, the Potency was inconclusive: 14.6 µM [falling, single point].
In the case of `CC(C)(C)Nc1ncnc2sc(-c3ccccc3)cc12`, the Potency is reported as inconclusive: 18.4 µM [falling, single point].
In the case of `O=C(Cc1cccs1)Nc1nc2c(ccc3ccccc32)s1`, the “activity change, negative = cytotoxicity” value is reported as inactive: -6.43%.
For `C=C(CC[C@@H](O)C(C)(C)O)[C@H]1CC[C@]2(C)[C@@H]1CCC1[C@@]3(C)CCC(=O)C(C)(C)C3CC[C@]12C` (stereo not given in full), the Potency was inconclusive: 11.6 µM [falling, partial curve, poor fit].
For `CCOC(=O)/C(C#N)=C/C=C1\C=Cc2ccccc2N1CC`, the Potency was inconclusive: 14.6 µM [falling, partial curve].
With `CC1CCN(S(=O)(=O)c2ccc(C(=O)Nc3nnc(C4CC4)o3)cc2)CC1` the Potency was inconclusive: 20.6 µM [falling, partial curve, poor fit].
For `CCOc1ccc(NS(=O)(=O)c2ccc(OCC)c3ncccc23)cc1`, the Potency was inconclusive: 23.1 µM [falling, single point].
With `Cc1cccc(NC(=S)N/N=C/c2c[nH]c3ccccc23)c1` the Potency was inconclusive: 18.4 µM [falling, single point].
In the case of `CCN(CC)CCn1c2c(c(SCC(=O)Nc3ccc(F)c(F)c3)nc1=O)CCC2`, the Potency is reported as inconclusive: 11.6 µM [falling, partial curve, poor fit].
In the case of `CCOc1ccc(CCNC(=O)c2cc(=O)[nH]c3ccc(S(=O)(=O)N4CCCCC4C)cc23)cc1OCC` (stereo not given), the “activity change, negative = cytotoxicity” value is reported as inactive: -0.578%.
With `COc1ccc(/C=N/NC(=S)Nc2ccccc2[N+](=O)[O-])cc1O` the “activity change, negative = cytotoxicity” value was inactive: -0.128%.
In the case of `CC(=O)c1ccc(NC(=O)C2CCN(c3nnc(C)c4c(C)n(-c5ccccc5)nc34)CC2)cc1`, the “activity change, negative = cytotoxicity” value is reported as inactive: -23%.
For `Cc1ccnc(NC(=O)c2ccccc2NC(=O)c2ccc(Cl)cc2Cl)c1`, the “activity change, negative = cytotoxicity” value was inactive: -10.9%.
In the case of `CCc1ccc(S(=O)(=O)NCc2ccc3c(c2)CCN3C(=O)c2ccc(C)cc2)cc1`, the Potency is reported as inconclusive: 25.9 µM [falling, partial curve, poor fit].
For `CCOc1cc(C)c(S(=O)(=O)Nc2ccc(Cl)cn2)cc1C`, the Potency was inconclusive: 18.4 µM [falling, partial curve, poor fit].
